The other results are listed elsewhere or left out.

In this assay the target is T1, OsSMF1 (Oryza sativa, UniProt Q6ZLB0 1-436).
T1 sequence: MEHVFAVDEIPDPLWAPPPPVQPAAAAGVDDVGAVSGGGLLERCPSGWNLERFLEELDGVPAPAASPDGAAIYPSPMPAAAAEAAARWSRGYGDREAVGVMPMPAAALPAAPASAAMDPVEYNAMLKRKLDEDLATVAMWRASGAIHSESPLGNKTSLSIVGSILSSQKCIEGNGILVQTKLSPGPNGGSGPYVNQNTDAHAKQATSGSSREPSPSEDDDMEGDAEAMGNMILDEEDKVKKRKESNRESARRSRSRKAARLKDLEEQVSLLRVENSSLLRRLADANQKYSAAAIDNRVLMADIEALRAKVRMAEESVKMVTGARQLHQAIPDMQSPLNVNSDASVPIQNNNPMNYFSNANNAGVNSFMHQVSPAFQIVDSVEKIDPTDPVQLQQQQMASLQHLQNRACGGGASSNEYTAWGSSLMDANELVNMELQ
The assay is described as follows: protein-binding microarray (RPBM); PBS, 2% BSA, 51.3 ng/ul salmon testes DNA, 50 uM zinc acetate, 200 nM TF, 25 C, 1 h; high values mean tight binding. Conditions: protein: recombinant; tags: N-terminal polyhistidine and DsRed monomer fusion (pET32a); chain copies: 2; label: CyDye5-dUTP incorporated in the synthesized complementary strand; 3' TTTTT single-stranded linker to array surface; dsDNA, one strand shown. In short, it runs like this: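 Using Ni–NTA, transcription factors fused N-terminally to polyhistidine and DsRed were purified after expression in E. coli BL21-CodonPlus. These were incubated at 200 nM with a blocked, double-stranded custom Agilent array for 1 h at 25 °C in a buffer containing 50 µM zinc acetate, and the array was washed. The binding signal is per-feature fluorescence intensity (arbitrary units) on an Axon 4000B scanner.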
On to “AGGGCAGCGGCCTCGTCACCGTCGCCACCTTCGCCTCCATCGGAGTCACCTAGTGCAG”, for which the binding signal was 7360 fluorescence intensity (a.u.).
Consider “ACTGTCCAGATTTACGGATCCTGACAAGGACACGTCATGCCGGAGTCACCTAGTGCAG”, for which the binding signal is 13800 fluorescence intensity (a.u.).
To “GCCGATTCGGCGATTGCATCAGACTGACCAACAAGATACACGGAGTCACCTAGTGCAG” belongs 3200 fluorescence intensity (a.u.).
Turning to “CGCCGCCGCCGTCGCTGCCGCCGCCGCCGCCGCCTAGGGTCGGAGTCACCTAGTGCAG”, the binding signal was 29300 fluorescence intensity (a.u.).
To “AGAGCCTGCGCCACCAACTCTACTGTACTGAGCAGAGTAGCGGAGTCACCTAGTGCAG” belongs 38300 fluorescence intensity (a.u.); to “ACCGGCCACATACCGCCGGTTAGACCGGCTTTCAAGCCGCCGGAGTCACCTAGTGCAG”, 18000 fluorescence intensity (a.u.).
As for “ATATTCATCTATACTTTTATATGTCATGGTTGTTAACCCACGGAGTCACCTAGTGCAG”, the figure is 3490 fluorescence intensity (a.u.).
To “GTGGGGAAGGAGATTGCCAAGGTTCCAAGCCCAGAACCAGCGGAGTCACCTAGTGCAG” belongs 4300 fluorescence intensity (a.u.); to “TATCTGGATAAATTCACCTCCCTTGTGTGGAATAGTAATGCGGAGTCACCTAGTGCAG”, 3670 fluorescence intensity (a.u.).
Turning to “TTTACTGTAGCACCACATTGTCAAATTATGACGTAATTAGCGGAGTCACCTAGTGCAG”, the binding signal is 5440 fluorescence intensity (a.u.).
As for “GGGATTAATCCAAACTAATCCACATCAACCTGCACCAATCCGGAGTCACCTAGTGCAG”, the figure is 4780 fluorescence intensity (a.u.); as for “CTCCTACATGCACTCCCCTCTACAAAACCACAACCAGCATCGGAGTCACCTAGTGCAG”, 3600 fluorescence intensity (a.u.); as for “ATAAGCTCAAGATCTCTTTCTTTTCTCACTTTGCACGATTCGGAGTCACCTAGTGCAG”, 12700 fluorescence intensity (a.u.).
Turning to “TCTGTATATATTACTACTTGCGTTTCTCTTTCTTTCTTCCCGGAGTCACCTAGTGCAG”, the binding signal is 3150 fluorescence intensity (a.u.).
As for “GCTCCAAACCTTAGATATACTGCTGCGGCGCCTCCGAGCTCGGAGTCACCTAGTGCAG”, the figure is 3380 fluorescence intensity (a.u.); as for “TCCATCTCCTCCCTCCCCGGTGGGTGACGTCACGCCTTCGCGGAGTCACCTAGTGCAG”, 30200 fluorescence intensity (a.u.).
To “ATCTTCTGAATCTGAAGTGCTAAATTGTCAAAATATTAGTCGGAGTCACCTAGTGCAG” belongs 3160 fluorescence intensity (a.u.); to “GCCCATGGTCCTATCCACGCCGCGTCAGGAGGAAGCAGAGCGGAGTCACCTAGTGCAG”, 3230 fluorescence intensity (a.u.); to “CTAAAATGTAAAATATGATCTAGCGAAGGAGTAAAATGCACGGAGTCACCTAGTGCAG”, 3810 fluorescence intensity (a.u.).
Regarding “GAGCTTTACGCCGGTTTATATTTTCGTACGCGGCCATTTGCGGAGTCACCTAGTGCAG”, the binding signal was 3520 fluorescence intensity (a.u.).
Turning to “TAGAGAATGAAGTAAGGATGATATGTTTCGCTGACACATGCGGAGTCACCTAGTGCAG”, the binding signal was 4520 fluorescence intensity (a.u.).
To “ATGGGCCAGGCCGGGACGATGACGTAGTCTCCAACCGCCACGGAGTCACCTAGTGCAG” belongs 6660 fluorescence intensity (a.u.).
As for “AGCTCGGCCATCGCCCACTCCACGGTGGTCGTCATCGTGTCGGAGTCACCTAGTGCAG”, the figure is 3900 fluorescence intensity (a.u.); as for “TAAGATGGTTTTGCTAGTACTTTGATACGTCATCCGTGTACGGAGTCACCTAGTGCAG”, 5010 fluorescence intensity (a.u.); as for “GTTAAGGACGTAGGATTGGAACGTCGATGCGACACTAAACCGGAGTCACCTAGTGCAG”, 8730 fluorescence intensity (a.u.).
As for “TTGTGCCGAGGAAGTGATGGGATAACGTTAGTCACATAAACGGAGTCACCTAGTGCAG”, the figure is 5890 fluorescence intensity (a.u.); as for “ACTTCACCAGTTCACCACCGTGGCACTCCCTGGGACTGAACGGAGTCACCTAGTGCAG”, 3640 fluorescence intensity (a.u.); as for “ACGGTGATCGGGCACAAGCGGCGCCAGGACGAGGGCGGCGCGGAGTCACCTAGTGCAG”, 21900 fluorescence intensity (a.u.).
As to “ACCTACCAAAGTGACAAGGCATTTTGTCCCGGATGGTTTTCGGAGTCACCTAGTGCAG”, the binding signal was 5280 fluorescence intensity (a.u.).
As for “CTGTACAGGCTCATGACGTACCACGAGGTCATCGACGAGACGGAGTCACCTAGTGCAG”, the figure is 4310 fluorescence intensity (a.u.); as for “TACAGGCGCCCTCCTCCTACCACGTCGGTTCGAGTGTGCCCGGAGTCACCTAGTGCAG”, 4970 fluorescence intensity (a.u.).
As for “TCTCCTACGTACAGCCACCTTACCTGTTGCGTCAACGAGACGGAGTCACCTAGTGCAG”, the figure is 3450 fluorescence intensity (a.u.).
To “TTAATAATCACTAGTGGTCACACGTGTAAGCACTACTAGTCGGAGTCACCTAGTGCAG” belongs 5390 fluorescence intensity (a.u.).
With “ACAGCGTTGTGCTTTCAGTGGTAGGTGACGTACCCGTCGACGGAGTCACCTAGTGCAG”, the binding signal is 5560 fluorescence intensity (a.u.).
To “TGACCTTTGTGCATGTTTTCGTGCGCTGAATCATGCTTGACGGAGTCACCTAGTGCAG” belongs 3590 fluorescence intensity (a.u.); to “TCTCTCTCTCTCGCACAATCATCGCCGCCACCACCCTCTGCGGAGTCACCTAGTGCAG”, 3410 fluorescence intensity (a.u.).
To “AGCTTGGGACATTGGTATCTATTGTTCGACAGGTAAGATGCGGAGTCACCTAGTGCAG” belongs 3410 fluorescence intensity (a.u.); to “AGTTTTATAAAAGAGGTGGATGTTGCATCTAATCTTGACCCGGAGTCACCTAGTGCAG”, 7990 fluorescence intensity (a.u.).
For the sequence “TTACATTGGGGTGGGAGATGACGCAGTCGGCGACGGCACCCGGAGTCACCTAGTGCAG”, the binding signal was 4870 fluorescence intensity (a.u.).
In the case of “CCTACCCCTTTCGTCTCTGCCACGCCCGTGCATATCCATCCGGAGTCACCTAGTGCAG”, the binding signal was 31300 fluorescence intensity (a.u.).
With “GACGGCGCGACGGAGACTGGCGGGGATAGGGGTGAGGTGGCGGAGTCACCTAGTGCAG”, the binding signal was 5460 fluorescence intensity (a.u.).
To “ACCATATTCCAATGCTACCTGTGTGCTGCAACCTTCAAGTCGGAGTCACCTAGTGCAG” belongs 3330 fluorescence intensity (a.u.).

(Values after article PMC7819943, “Rice protein-binding microarrays: a tool to detect cis-acting elements near promoter regions in rice”.)
